Experimental data: PubChem BioAssay AID743454 (Peter MacCallum Cancer Centre, 2014)
In all, the deposit lists about 18,000 reagents; this is a random part of them. 450 of them (2.5%) count as active. 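Single biological run; no consistent viability z cut-off exists, so the class columns, not z-scores, define the calls.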 A number with no mark means an inactive call. Reagents against one gene are numbered here.

- Assay: 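Search for knock-downs that restore vorinostat killing in resistant colon cancer cells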 (primary screen)
- System: human HCT116-VR colon cancer cells, selected for vorinostat resistance
- Reagents: siRNA pool against human genes, 40 nM siRNA pool
- Timing: vorinostat for 24 h, read-out about 72 h after transfection
- Treatment: vorinostat at 2.5 µM final
- Read-out: 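Two measures, CellTiter-Fluor viability and luminescent caspase 3/7 activity, each as fold change against same-plate mock wells, mean of duplicates, then screen-wide robust z-score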
- Direction: viability robust z-score: higher = more viable cells than screen typical; caspase robust z-score: higher = more caspase 3/7 activity than screen typical
- Hit rule: 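a knock-down is a hit when classed RV1 or RV2 for lowered viability, or CA1 or CA2 for caspase activation; those lethal without drug were dropped; hits were retested singly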

no.	gene symbol	reagent	viability hit class	caspase hit class	viability robust z-score	caspase robust z-score
1	SCRN2 (secernin 2)	1	no change	no change	0.66	0.18
2	ERICH6 (glutamate rich 6)	1	no change	no change	-0.36	-0.84
3	ISM2 (isthmin 2)	1	no change	no change	-0.55	0.52
4	FIG4 (FIG4 phosphoinositide 5-phosphatase)	1	no change	no change	-0.8	-0.56
5	CDH3 (cadherin 3)	1	no change	no change	-0.6	-0.6
6	PLEKHA7 (pleckstrin homology domain containing A7)	1	no change	no change	-0.46	1.77
7	ATP9B (ATPase phospholipid transporting 9B)	1	no change	no change	0.28	-0.68
8	ABLIM2 (actin binding LIM protein family member 2)	1	no change	no change	-1	1.52
9	HMGCS2 (3-hydroxy-3-methylglutaryl-CoA synthase 2)	1	no change	no change	-1.75	-0.45
10	GOLGA2 (golgin A2)	1	no change	no change	-0.75	1.54
11	F8A2 (coagulation factor VIII associated 2)	1	no change	no change	-1.36	3.81
12	SIN3B (SIN3 transcription regulator family member B)	1	no change	no change	1.56	0.78
13	TBC1D8 (TBC1 domain family member 8)	1	no change	no change	-1.38	0.09
14	SRBD1 (S1 RNA binding domain 1)	1	no change	no change	-0.02	3.58
15	THAP3 (THAP domain containing 3)	1	RV2 (reduced viability) (active)	no change	-2.98	1.76
16	MSX1 (msh homeobox 1)	1	no change	no change	0.1	0.07
17	GOLGB1 (golgin B1)	1	no change	no change	-0.02	-0.02
18	ANKZF1 (ankyrin repeat and zinc finger peptidyl tRNA hydrolase 1)	1	no change	no change	-1.9	0.17
19	IFRD2 (interferon related developmental regulator 2)	1	no change	no change	-0.09	1.57
20	MGAM (maltase-glucoamylase)	1	no change	no change	0.57	-0.52
21	SCHIP1 (schwannomin interacting protein 1)	1	no change	no change	0.24	-0.34
22	RAB9A (RAB9A, member RAS oncogene family)	1	no change	no change	0.39	-0.48
23	PKD1L3	1	no change	no change	-0.44	4.12
24	ZNF354B (zinc finger protein 354B)	1	no change (active)	CA1 (caspase activation)	0.17	5.96
25	HTR7 (5-hydroxytryptamine receptor 7)	1	no change	no change	-1.34	0.08
26	C19orf33 (chromosome 19 open reading frame 33)	1	no change	no change	-1.87	1.25
27	APOBEC1 (apolipoprotein B mRNA editing enzyme catalytic subunit 1)	1	no change	no change	0.7	0.28
28	THSD4 (thrombospondin type 1 domain containing 4)	1	no change	no change	-0.79	1.87
29	TXNL4B (thioredoxin like 4B)	1	no change	no change	0.62	-0.49
30	RPF1 (ribosome production factor 1 homolog)	1	no change	no change	-1.45	0.08
31	RXFP3 (relaxin family peptide receptor 3)	1	no change	no change	-0.02	0.17
32	OCA2 (OCA2 melanosomal transmembrane protein)	1	no change	no change	0.49	-0.72
33	KRT76 (keratin 76)	1	no change	no change	-0.71	-0.23
34	PLAGL1 (PLAG1 like zinc finger 1)	1	no change	no change	-0.7	3.15
35	SPANXD (SPANX family member D)	1	no change	no change	-4.15	-0.53
36	SPANXD (SPANX family member D)	2	no change	no change	-4.11	-0.9
37	ATP2A3	1	no change	no change	0.59	3.91
38	FGF12 (fibroblast growth factor 12)	1	no change	no change	-0.16	0.3
39	ATP6AP1L (ATPase H+ transporting accessory protein 1 like (pseudogene))	1	no change	no change	-0.74	1.5
40	CHCHD3 (coiled-coil-helix-coiled-coil-helix domain containing 3)	1	no change	no change	2.4	1.13
41	RPL31 (ribosomal protein L31)	1	no change	no change	-4.33	-0.82
42	MTTP (microsomal triglyceride transfer protein)	1	no change	no change	0.12	0.21
43	FLT1 (fms related receptor tyrosine kinase 1)	1	no change	no change	2.02	1.34
44	ZNF148 (zinc finger protein 148)	1	no change	no change	0.5	1.44
45	THBD (thrombomodulin)	1	no change	no change	-0.22	-0.38
46	KLC2 (kinesin light chain 2)	1	no change	no change	-1.16	-0.08
47	ZNF559 (zinc finger protein 559)	1	no change	no change	1.94	1.21
48	RCE1 (Ras converting CAAX endopeptidase 1)	1	no change (active)	CA1 (caspase activation)	-0.07	5.32
49	TMEM44 (transmembrane protein 44)	1	no change	no change	-1.76	-0.96
50	ACSL1 (acyl-CoA synthetase long chain family member 1)	1	no change	no change	1.15	-0.26
51	SMAD1 (SMAD family member 1)	1	no change	no change	-0.01	-0.57
52	CT45A6 (cancer/testis antigen family 45 member A6)	1	no change	no change	0.08	-0.54
53	MR1 (major histocompatibility complex, class I-related)	1	no change	no change	0.64	-0.1
54	UQCRH (ubiquinol-cytochrome c reductase hinge protein)	1	no change	no change	0.47	-0.78
55	TCTA (T cell leukemia translocation altered)	1	no change	no change	2.05	-0.33
56	NBL1 (NBL1, DAN family BMP antagonist)	1	no change	no change	0.76	0.26
57	RERG (RAS like estrogen regulated growth inhibitor)	1	no change	no change	0.38	-0.18

Only “viability hit class”, for 5 of the entries above:
ZNF354B (zinc finger protein 354B) = no change (active)
HTR7 (5-hydroxytryptamine receptor 7) = no change
C19orf33 (chromosome 19 open reading frame 33) = no change
APOBEC1 (apolipoprotein B mRNA editing enzyme catalytic subunit 1) = no change
THSD4 (thrombospondin type 1 domain containing 4) = no change
